# Results as given in the supplement of paper PMC10849652.
# Protein sequences, listed by entry. Tags and fused reporters are not part of them. Lines headed by an entry give the natural chain unless they say otherwise; changes in a name come on top.
# UniProt Q9NX04: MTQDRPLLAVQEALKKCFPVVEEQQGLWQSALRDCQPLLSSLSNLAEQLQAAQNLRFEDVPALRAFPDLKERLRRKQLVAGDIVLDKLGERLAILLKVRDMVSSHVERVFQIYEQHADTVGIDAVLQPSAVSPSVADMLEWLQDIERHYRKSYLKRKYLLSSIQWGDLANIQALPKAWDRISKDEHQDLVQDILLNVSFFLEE
# UniProt Q9HB71, whole entry, looked up: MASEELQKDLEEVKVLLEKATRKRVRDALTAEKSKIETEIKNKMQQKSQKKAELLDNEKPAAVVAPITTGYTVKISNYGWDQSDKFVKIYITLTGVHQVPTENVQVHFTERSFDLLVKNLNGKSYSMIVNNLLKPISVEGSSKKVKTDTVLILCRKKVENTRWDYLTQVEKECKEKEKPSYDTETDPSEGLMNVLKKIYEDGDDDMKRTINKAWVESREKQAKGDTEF
# UniProt P05937: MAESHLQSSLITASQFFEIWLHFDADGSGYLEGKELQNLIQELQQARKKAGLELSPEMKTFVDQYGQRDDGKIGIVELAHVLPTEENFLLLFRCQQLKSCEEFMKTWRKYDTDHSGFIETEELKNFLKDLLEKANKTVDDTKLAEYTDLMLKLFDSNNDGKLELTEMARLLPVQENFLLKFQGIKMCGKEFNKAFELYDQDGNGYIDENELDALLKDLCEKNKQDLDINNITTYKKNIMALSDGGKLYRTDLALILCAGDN
# UniProt Q9BV19: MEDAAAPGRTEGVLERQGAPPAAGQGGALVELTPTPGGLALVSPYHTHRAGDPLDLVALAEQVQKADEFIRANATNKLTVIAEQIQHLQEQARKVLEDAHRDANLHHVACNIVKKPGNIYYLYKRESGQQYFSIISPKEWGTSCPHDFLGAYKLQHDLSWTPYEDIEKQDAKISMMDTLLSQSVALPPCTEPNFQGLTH
# UniProt Q9Y2V0: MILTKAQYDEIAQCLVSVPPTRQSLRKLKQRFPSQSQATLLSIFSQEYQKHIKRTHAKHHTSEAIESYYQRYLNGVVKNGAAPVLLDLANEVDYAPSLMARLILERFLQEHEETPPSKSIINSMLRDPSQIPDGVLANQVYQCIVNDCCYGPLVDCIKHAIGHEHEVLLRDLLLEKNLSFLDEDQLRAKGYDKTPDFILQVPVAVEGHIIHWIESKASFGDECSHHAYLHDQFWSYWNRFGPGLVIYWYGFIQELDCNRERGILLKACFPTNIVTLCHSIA
# UniProt Q8N1A6: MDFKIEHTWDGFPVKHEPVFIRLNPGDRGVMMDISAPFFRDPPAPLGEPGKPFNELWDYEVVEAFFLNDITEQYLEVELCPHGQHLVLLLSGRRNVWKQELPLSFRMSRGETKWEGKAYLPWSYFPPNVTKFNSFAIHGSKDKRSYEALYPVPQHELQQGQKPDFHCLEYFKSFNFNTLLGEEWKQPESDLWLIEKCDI
# UniProt Q7L1Q6: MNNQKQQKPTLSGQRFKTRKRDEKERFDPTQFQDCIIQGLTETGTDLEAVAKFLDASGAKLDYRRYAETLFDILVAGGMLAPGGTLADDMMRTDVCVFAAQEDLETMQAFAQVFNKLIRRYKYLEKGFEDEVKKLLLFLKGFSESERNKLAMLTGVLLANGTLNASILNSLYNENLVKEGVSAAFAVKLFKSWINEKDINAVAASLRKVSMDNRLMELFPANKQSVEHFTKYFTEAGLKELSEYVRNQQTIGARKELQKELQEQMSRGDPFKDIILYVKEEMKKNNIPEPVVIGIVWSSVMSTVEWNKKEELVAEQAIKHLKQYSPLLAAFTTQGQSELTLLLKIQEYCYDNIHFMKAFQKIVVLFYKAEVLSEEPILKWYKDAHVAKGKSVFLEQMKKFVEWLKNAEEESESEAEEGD
# UniProt Q13137: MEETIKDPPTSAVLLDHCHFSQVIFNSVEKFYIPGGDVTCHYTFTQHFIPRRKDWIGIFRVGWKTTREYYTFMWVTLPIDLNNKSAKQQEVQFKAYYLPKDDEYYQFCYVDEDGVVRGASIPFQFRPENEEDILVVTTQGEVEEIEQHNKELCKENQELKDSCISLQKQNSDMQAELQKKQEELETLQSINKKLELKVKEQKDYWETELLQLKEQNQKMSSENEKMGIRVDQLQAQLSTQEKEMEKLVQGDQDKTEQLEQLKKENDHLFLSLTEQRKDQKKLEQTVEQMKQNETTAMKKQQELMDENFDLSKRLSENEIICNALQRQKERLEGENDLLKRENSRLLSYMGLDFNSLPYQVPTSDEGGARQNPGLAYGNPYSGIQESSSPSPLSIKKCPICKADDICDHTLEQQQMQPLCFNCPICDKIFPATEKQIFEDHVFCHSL
# UniProt Q06187: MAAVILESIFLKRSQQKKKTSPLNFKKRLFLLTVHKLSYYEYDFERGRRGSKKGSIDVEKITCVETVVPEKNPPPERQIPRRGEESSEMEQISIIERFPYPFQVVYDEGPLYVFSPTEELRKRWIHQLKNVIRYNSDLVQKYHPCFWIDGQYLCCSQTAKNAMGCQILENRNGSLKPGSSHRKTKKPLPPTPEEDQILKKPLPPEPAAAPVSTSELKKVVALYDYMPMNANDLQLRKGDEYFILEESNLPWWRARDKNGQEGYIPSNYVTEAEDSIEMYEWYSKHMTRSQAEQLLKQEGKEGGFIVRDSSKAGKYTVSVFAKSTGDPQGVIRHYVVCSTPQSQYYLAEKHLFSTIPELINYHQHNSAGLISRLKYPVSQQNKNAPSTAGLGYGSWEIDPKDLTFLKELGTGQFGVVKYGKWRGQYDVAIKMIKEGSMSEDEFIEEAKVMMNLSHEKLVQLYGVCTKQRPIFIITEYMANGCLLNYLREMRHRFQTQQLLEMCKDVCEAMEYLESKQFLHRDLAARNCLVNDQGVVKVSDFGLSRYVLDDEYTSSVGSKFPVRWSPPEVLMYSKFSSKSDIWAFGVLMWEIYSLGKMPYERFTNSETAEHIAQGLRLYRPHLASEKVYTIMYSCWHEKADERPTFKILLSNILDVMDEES
# UniProt Q9BXL7: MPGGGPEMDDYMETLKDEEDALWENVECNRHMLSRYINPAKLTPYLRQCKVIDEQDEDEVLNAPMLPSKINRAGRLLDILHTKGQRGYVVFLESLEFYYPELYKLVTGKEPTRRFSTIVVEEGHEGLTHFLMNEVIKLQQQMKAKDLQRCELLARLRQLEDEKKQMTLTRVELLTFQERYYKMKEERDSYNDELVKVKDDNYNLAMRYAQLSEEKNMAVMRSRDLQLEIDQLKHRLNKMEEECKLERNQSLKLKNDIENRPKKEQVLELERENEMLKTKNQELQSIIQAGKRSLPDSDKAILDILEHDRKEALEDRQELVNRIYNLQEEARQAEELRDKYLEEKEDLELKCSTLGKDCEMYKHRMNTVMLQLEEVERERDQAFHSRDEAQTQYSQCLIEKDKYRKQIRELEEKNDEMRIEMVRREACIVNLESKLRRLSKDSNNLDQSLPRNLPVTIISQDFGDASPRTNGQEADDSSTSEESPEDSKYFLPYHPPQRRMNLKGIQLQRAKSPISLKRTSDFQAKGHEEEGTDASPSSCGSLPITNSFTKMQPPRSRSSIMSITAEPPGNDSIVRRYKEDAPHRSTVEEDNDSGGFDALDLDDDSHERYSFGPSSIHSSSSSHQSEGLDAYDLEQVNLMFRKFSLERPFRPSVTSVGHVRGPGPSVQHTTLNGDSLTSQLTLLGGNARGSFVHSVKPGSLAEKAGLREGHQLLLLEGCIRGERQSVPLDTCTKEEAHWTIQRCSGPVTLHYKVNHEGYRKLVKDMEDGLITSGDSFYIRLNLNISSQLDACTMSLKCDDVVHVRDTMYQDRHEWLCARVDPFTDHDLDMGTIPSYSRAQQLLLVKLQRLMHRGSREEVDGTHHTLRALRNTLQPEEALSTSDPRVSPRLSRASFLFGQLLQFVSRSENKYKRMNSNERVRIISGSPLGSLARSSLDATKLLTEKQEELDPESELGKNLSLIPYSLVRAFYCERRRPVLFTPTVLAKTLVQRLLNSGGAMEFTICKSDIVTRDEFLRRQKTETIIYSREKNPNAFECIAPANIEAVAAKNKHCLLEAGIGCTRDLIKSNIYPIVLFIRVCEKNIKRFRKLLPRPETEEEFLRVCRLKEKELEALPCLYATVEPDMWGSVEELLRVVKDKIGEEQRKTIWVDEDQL
# UniProt P35219: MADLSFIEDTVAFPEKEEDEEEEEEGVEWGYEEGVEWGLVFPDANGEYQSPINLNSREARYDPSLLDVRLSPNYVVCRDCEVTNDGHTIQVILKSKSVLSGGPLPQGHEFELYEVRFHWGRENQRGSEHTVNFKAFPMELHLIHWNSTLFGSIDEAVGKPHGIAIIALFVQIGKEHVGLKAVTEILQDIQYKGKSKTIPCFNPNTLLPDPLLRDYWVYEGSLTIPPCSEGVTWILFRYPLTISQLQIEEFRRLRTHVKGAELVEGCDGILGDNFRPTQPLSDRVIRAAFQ
# UniProt O60566, whole entry, looked up: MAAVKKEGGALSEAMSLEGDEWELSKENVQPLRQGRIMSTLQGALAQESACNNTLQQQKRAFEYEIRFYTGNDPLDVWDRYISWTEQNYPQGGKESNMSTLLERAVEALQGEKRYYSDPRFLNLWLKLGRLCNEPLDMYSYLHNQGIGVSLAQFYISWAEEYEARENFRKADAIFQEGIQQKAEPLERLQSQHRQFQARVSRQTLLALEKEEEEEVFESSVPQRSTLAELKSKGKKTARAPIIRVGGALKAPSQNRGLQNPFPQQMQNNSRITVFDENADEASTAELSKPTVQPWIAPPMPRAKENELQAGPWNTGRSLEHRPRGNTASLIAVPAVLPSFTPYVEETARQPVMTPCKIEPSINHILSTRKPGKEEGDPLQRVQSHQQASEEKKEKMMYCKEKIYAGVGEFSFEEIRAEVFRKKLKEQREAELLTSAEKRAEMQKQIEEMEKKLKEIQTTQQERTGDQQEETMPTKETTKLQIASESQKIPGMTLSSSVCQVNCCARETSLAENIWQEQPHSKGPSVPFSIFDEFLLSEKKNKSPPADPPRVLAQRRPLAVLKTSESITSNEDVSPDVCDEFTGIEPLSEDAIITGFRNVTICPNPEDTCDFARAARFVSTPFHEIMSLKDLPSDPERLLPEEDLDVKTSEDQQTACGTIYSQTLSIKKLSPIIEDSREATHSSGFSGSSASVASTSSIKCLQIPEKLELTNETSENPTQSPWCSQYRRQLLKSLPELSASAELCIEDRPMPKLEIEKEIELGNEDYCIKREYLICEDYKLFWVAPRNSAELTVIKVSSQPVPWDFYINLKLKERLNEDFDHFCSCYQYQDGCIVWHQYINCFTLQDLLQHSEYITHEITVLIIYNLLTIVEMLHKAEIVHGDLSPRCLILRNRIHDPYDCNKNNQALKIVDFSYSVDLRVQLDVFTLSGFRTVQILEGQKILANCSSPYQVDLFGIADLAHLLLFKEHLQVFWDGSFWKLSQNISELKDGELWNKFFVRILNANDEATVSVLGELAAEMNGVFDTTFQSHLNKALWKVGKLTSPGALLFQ
# UniProt Q5T6V5: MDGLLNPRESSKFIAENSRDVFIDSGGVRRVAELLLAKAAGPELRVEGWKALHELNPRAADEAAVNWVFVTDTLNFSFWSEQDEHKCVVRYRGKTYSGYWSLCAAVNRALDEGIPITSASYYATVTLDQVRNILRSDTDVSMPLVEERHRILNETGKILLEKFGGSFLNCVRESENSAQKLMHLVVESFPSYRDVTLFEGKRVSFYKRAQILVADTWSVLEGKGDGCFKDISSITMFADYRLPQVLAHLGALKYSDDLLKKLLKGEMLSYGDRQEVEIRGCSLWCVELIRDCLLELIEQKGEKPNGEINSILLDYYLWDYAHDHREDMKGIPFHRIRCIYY
# UniProt Q13555: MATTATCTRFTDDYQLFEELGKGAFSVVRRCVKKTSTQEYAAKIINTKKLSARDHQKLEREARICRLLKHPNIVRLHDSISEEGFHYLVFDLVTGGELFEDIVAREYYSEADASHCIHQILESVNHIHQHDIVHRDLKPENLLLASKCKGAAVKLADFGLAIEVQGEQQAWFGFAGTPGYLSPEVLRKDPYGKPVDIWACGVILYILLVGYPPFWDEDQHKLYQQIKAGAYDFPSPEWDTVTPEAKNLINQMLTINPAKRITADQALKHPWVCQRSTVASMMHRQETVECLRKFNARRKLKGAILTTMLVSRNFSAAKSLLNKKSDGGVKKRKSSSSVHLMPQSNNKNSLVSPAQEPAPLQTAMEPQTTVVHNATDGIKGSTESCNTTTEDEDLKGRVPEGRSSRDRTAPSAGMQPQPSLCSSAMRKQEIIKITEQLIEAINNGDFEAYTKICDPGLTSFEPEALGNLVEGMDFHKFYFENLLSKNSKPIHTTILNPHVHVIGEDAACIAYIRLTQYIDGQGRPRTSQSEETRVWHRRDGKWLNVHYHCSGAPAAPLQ
# UniProt Q8N1Q1: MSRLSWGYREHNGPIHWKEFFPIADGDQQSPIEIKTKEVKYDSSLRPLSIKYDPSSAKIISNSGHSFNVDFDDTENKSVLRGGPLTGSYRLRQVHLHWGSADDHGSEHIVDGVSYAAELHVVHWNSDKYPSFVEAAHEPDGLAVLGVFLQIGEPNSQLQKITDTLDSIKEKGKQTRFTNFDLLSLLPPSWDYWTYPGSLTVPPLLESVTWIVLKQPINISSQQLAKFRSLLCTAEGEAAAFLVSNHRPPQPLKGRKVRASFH
# Some of the results follow.
# Assays:
# Test in all cases: log2 fold change, soluble protein after heating vs DMSO (PISA); higher = thermal stabilisation; K562 cells, 10 uM, 30 min; active = over 0.2 and 3.5 SD of the protein, either way, in both replicates (recomputed)
# saracatinib = compound: CN1CCN(CCOc2cc(OC3CCOCC3)c3c(Nc4c(Cl)ccc5c4OCO5)ncnc3c2)CC1 [saracatinib]
# Summary of the method: (§1)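 For each measurement, 10 μM compound was applied for 30 min to K562 cells at 2×10^6 cells/mL. Aliquots were heated for 3 min across 48°C-58°C, pooled, and extracted in PBS with 0.5% NP-40 at 4°C; the supernatant after 21,000xg for 90 min was soluble protein. This was quantified by TMTpro 16plex LC-MS/MS with channel sums equalised, and thermal stability was reported relative to control samples from duplicates, on a log2 fold-change scale.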
# sotrastaurin = compound: CN1CCN(c2nc(C3=C(c4c[nH]c5ccccc45)C(=O)NC3=O)c3ccccc3n2)CC1 [sotrastaurin]
# Summary of the method: as §1
# alvocidib = compound: CN1CC[C@H](c2c(O)cc(O)c3c(=O)cc(-c4ccccc4Cl)oc23)[C@H](O)C1 [alvocidib]
# Summary of the method: as §1
# Tubastatin A = compound: CN1CCc2c(c3ccccc3n2Cc2ccc(C(=O)NO)cc2)C1 [Tubastatin A]
# Summary of the method: as §1
# [1] = compound: CNC(=O)C1=CC=CC=C1NC2=NC(=NC=C2Cl)NC3=C(C=C(C=C3)N4CCOCC4)OC
# Summary of the method: as §1
# defactinib = compound: CNC(=O)c1ccc(Nc2ncc(C(F)(F)F)c(NCc3nccnc3N(C)S(C)(=O)=O)n2)cc1 [defactinib]
# Summary of the method: as §1
# rucaparib = compound: CNCc1ccc(-c2[nH]c3cc(F)cc4c3c2CCNC4=O)cc1 [rucaparib]
# Summary of the method: as §1
# [2] = compound: CNc1nc(-c2ccc3c(N)n[nH]c3c2)cc(N2C[C@@H](C(=O)NC3CCCCC3)CC[C@H]2C)n1
# Summary of the method: as §1
# encorafenib = compound: COC(=O)N[C@@H](C)CNc1nccc(-c2cn(C(C)C)nc2-c2cc(Cl)cc(NS(C)(=O)=O)c2F)n1 [encorafenib]
# Summary of the method: as §1
# [3] = compound: COC(=O)[C@H](CCSC)NC(=O)C1=C(C=C(C=C1)NC[C@H](CS)N)C2=CC=CC=C2
# Summary of the method: as §1
# [4] = compound: COC1=CC=C(C=C1)CN2C=CC3=C2C=C(C=C3)C(=O)NO
# Summary of the method: as §1
# filanesib = compound: CON(C)C(=O)N1N=C(c2cc(F)ccc2F)S[C@@]1(CCCN)c1ccccc1 [filanesib]
# Summary of the method: as §1
# zotarolimus = compound: CO[C@H]1C[C@@H]2CC[C@@H](C)[C@@](O)(O2)C(=O)C(=O)N2CCCC[C@H]2C(=O)O[C@H]([C@H](C)C[C@@H]2CC[C@H](n3cnnn3)[C@H](OC)C2)CC(=O)[C@H](C)/C=C(\C)[C@@H](O)[C@@H](OC)C(=O)[C@H](C)C[C@H](C)/C=C/C=C/C=C/1C [zotarolimus]
# Summary of the method: as §1
# idasanutlin = compound: COc1cc(C(=O)O)ccc1NC(=O)[C@@H]1N[C@@H](CC(C)(C)C)[C@](C#N)(c2ccc(Cl)cc2F)[C@H]1c1cccc(Cl)c1F [idasanutlin]
# Summary of the method: as §1
# alisertib = compound: COc1cc(Nc2ncc3c(n2)-c2ccc(Cl)cc2C(c2c(F)cccc2OC)=NC3)ccc1C(=O)O [alisertib]
# Summary of the method: as §1
# [5] = compound: COc1cc2nc(-c3cc(F)ccc3O)nc(N[C@@H]3CNC[C@H]3C(C)(C)O)c2cc1OC
# Summary of the method: as §1
# gefitinib = compound: COc1cc2ncnc(Nc3ccc(F)c(Cl)c3)c2cc1OCCCN1CCOCC1 [gefitinib]
# Summary of the method: as §1
# [6] = compound: COc1cccc2cc(-c3nc([C@H]4CC[C@H](C(=O)O)CC4)n4ncnc(N)c34)[nH]c12
# Summary of the method: as §1
# lapatinib = compound: CS(=O)(=O)CCNCc1ccc(-c2ccc3ncnc(Nc4ccc(OCc5cccc(F)c5)c(Cl)c4)c3c2)o1 [lapatinib]
# Summary of the method: as §1
# pictilisib = compound: CS(=O)(=O)N1CCN(Cc2cc3nc(-c4cccc5[nH]ncc45)nc(N4CCOCC4)c3s2)CC1 [pictilisib]
# Summary of the method: as §1
Target,log2 fold change (saracatinib),log2 fold change (sotrastaurin),log2 fold change (alvocidib),log2 fold change (Tubastatin A),log2 fold change [1],log2 fold change (defactinib),log2 fold change (rucaparib),log2 fold change [2],log2 fold change (encorafenib),log2 fold change [3],log2 fold change [4],log2 fold change (filanesib),log2 fold change (zotarolimus),log2 fold change (idasanutlin),log2 fold change (alisertib),log2 fold change [5],log2 fold change (gefitinib),log2 fold change [6],log2 fold change (lapatinib),log2 fold change (pictilisib)
C1orf109 (UniProt Q9NX04),inactive: 0.02,inactive: -0.014,inactive: 0.01,inactive: -0.091,inactive: 0.011,inactive: 0.086,inactive: 0.07,inactive: -0.031,inactive: 0,inactive: 0.076,inactive: -0.074,inactive: -0.09,inactive: -0.094,inactive: -0.034,inactive: -0.129,inactive: 0.048,inactive: 0.113,inactive: 0.008,inactive: -0.06,inactive: -0.074
CACYBP (UniProt Q9HB71),inactive: -0.029,inactive: 0.008,inactive: -0.052,inactive: -0.011,inactive: 0.017,inactive: -0.008,inactive: -0.021,inactive: 0.015,inactive: -0.009,inactive: 0.032,inactive: 0,inactive: -0.044,inactive: 0.008,inactive: -0.044,inactive: -0.049,inactive: 0.041,inactive: -0.004,inactive: 0.021,inactive: -0.073,inactive: 0.002
CAPZB (UniProt P47756),inactive: -0.004,inactive: 0.029,inactive: -0.054,inactive: -0.021,inactive: 0.024,inactive: 0.007,inactive: -0.02,inactive: 0,inactive: -0.035,inactive: 0.028,inactive: -0.039,inactive: -0.067,inactive: 0.015,inactive: -0.004,inactive: -0.059,inactive: 0.074,inactive: 0.003,inactive: -0.005,inactive: -0.04,inactive: 0.021
CALB1 (UniProt P05937),inactive: 0.033,inactive: 0.008,,inactive: -0.026,inactive: 0.02,inactive: 0.013,inactive: -0.07,inactive: -0.14,inactive: 0.023,inactive: 0.021,inactive: 0.029,inactive: -0.192,inactive: 0.006,inactive: -0.024,inactive: -0.022,inactive: -0.071,inactive: -0.024,inactive: 0.015,inactive: 0.013,inactive: 0.027
C1orf50 (UniProt Q9BV19),inactive: -0.073,inactive: 0.037,inactive: -0.149,inactive: 0.105,inactive: -0.251,inactive: -0.18,inactive: -0.016,inactive: -0.075,inactive: -0.011,inactive: 0.031,,inactive: 0.079,inactive: 0.162,inactive: 0.21,inactive: -0.088,inactive: -0.068,inactive: 0.043,inactive: 0.029,inactive: -0.093,inactive: -0.177
C15orf41 (UniProt Q9Y2V0),inactive: 0.009,inactive: 0.042,,inactive: 0.011,inactive: -0.137,inactive: -0.008,inactive: 0.081,inactive: -0.017,inactive: 0.01,inactive: 0.079,inactive: -0.057,inactive: -0.021,inactive: -0.096,inactive: -0.023,,inactive: 0.011,,,inactive: -0.018,inactive: 0.047
C4orf33 (UniProt Q8N1A6),inactive: -0.027,inactive: -0.091,,inactive: -0.024,inactive: 0.048,inactive: -0.071,inactive: 0.091,inactive: 0.013,inactive: -0.076,inactive: 0.042,inactive: -0.055,inactive: 0.072,inactive: -0.009,inactive: -0.054,inactive: -0.17,inactive: -0.026,inactive: 0.029,inactive: 0.061,inactive: 0,inactive: 0.049
BZW1 isoform 3 (UniProt Q7L1Q6),inactive: -0.083,inactive: -0.207,,inactive: 0.047,inactive: -0.054,inactive: -0.141,inactive: 0.128,inactive: 0.027,inactive: 0.158,inactive: -0.1,inactive: 0.033,inactive: -0.069,inactive: 0.052,inactive: -0.152,inactive: -0.078,inactive: -0.032,inactive: -0.028,inactive: -0.13,inactive: -0.071,inactive: -0.071
CALCOCO2 isoform 4 (UniProt Q13137),inactive: -0.03,inactive: -0.127,,inactive: 0.037,inactive: 0.012,inactive: 0.017,inactive: -0.044,inactive: -0.034,inactive: 0.076,inactive: 0.021,inactive: -0.041,inactive: -0.166,inactive: -0.044,inactive: 0.014,inactive: 0,inactive: 0.018,inactive: -0.07,inactive: -0.08,inactive: 0,inactive: 0.031
BTK isoform 2 (UniProt Q06187),inactive: -0.175,inactive: -0.178,inactive: 0.106,inactive: 0.203,inactive: 0.27,inactive: 0.142,,inactive: 0.26,,inactive: -0.126,inactive: -0.049,inactive: 0.367,inactive: 0.19,inactive: 0.081,inactive: -0.036,,inactive: 0.012,inactive: -0.126,,inactive: -0.078
CARD11 (UniProt Q9BXL7),inactive: -0.264,inactive: -0.064,inactive: 0.141,,,,,inactive: 0.11,,,inactive: 0.035,inactive: 0.202,inactive: -0.073,inactive: 0.089,,inactive: 0.051,,,inactive: 0.084,
CA8 (UniProt P35219),inactive: -0.054,inactive: -0.023,,inactive: 0.084,inactive: 0.118,inactive: -0.163,inactive: 0.068,inactive: 0.018,inactive: 0.024,inactive: 0.014,inactive: 0.046,inactive: -0.055,inactive: 0.09,inactive: -0.073,inactive: -0.112,inactive: -0.086,inactive: 0.023,inactive: 0.032,inactive: 0.008,inactive: 0.173
BUB1B isoform 3 (UniProt O60566),inactive: -0.071,inactive: -0.113,,inactive: 0.031,inactive: 0.042,inactive: -0.076,inactive: 0.006,inactive: -0.031,inactive: 0.097,inactive: -0.029,inactive: 0.038,inactive: 0.103,inactive: 0.014,inactive: -0.014,inactive: 0.005,inactive: 0.001,inactive: 0.032,inactive: -0.098,inactive: 0.006,inactive: 0.065
C9orf64 (UniProt Q5T6V5),inactive: -0.053,inactive: -0.124,,inactive: 0.036,inactive: -0.04,inactive: -0.067,active: 0.377,inactive: -0.018,inactive: 0.047,inactive: 0.016,inactive: 0.07,inactive: -0.091,inactive: 0.038,inactive: -0.062,inactive: 0.078,inactive: -0.079,inactive: -0.062,inactive: -0.022,inactive: 0.043,inactive: -0.055
CAMK2G isoform 6 (UniProt Q13555),inactive: -0.005,inactive: -0.088,,inactive: -0.012,inactive: 0.25,inactive: 0.14,inactive: 0.061,inactive: 0.129,inactive: 0,inactive: -0.074,inactive: -0.018,inactive: 0.269,inactive: 0.039,inactive: -0.101,inactive: -0.173,inactive: -0.032,inactive: -0.006,inactive: -0.204,inactive: 0.12,inactive: 0.141
CA13 (UniProt Q8N1Q1),inactive: -0.004,inactive: -0.021,inactive: -0.178,inactive: 0.157,inactive: -0.081,inactive: -0.05,,inactive: 0.005,,inactive: -0.122,inactive: -0.01,inactive: -0.011,inactive: 0.039,inactive: -0.134,inactive: 0.149,,inactive: -0.085,inactive: -0.056,,inactive: -0.019
C8orf33 isoform 2 (UniProt Q9H7E9),inactive: -0.059,inactive: -0.002,inactive: 0.39,inactive: 0.223,,inactive: 0.488,inactive: 0.396,inactive: 0.073,inactive: 0.126,inactive: 0.013,inactive: -0.45,inactive: 0.622,inactive: 0.083,inactive: 0.481,inactive: -0.207,inactive: -0.034,inactive: -0.095,inactive: -0.387,inactive: 0.26,inactive: -0.087

# Two records drawn at random from those above:
Target,log2 fold change (saracatinib),log2 fold change (sotrastaurin),log2 fold change (alvocidib),log2 fold change (Tubastatin A),log2 fold change [1],log2 fold change (defactinib),log2 fold change (rucaparib),log2 fold change [2],log2 fold change (encorafenib),log2 fold change [3],log2 fold change [4],log2 fold change (filanesib),log2 fold change (zotarolimus),log2 fold change (idasanutlin),log2 fold change (alisertib),log2 fold change [5],log2 fold change (gefitinib),log2 fold change [6],log2 fold change (lapatinib),log2 fold change (pictilisib)
CALCOCO2 isoform 4 (UniProt Q13137),inactive: -0.03,inactive: -0.127,,inactive: 0.037,inactive: 0.012,inactive: 0.017,inactive: -0.044,inactive: -0.034,inactive: 0.076,inactive: 0.021,inactive: -0.041,inactive: -0.166,inactive: -0.044,inactive: 0.014,inactive: 0,inactive: 0.018,inactive: -0.07,inactive: -0.08,inactive: 0,inactive: 0.031
C4orf33 (UniProt Q8N1A6),inactive: -0.027,inactive: -0.091,,inactive: -0.024,inactive: 0.048,inactive: -0.071,inactive: 0.091,inactive: 0.013,inactive: -0.076,inactive: 0.042,inactive: -0.055,inactive: 0.072,inactive: -0.009,inactive: -0.054,inactive: -0.17,inactive: -0.026,inactive: 0.029,inactive: 0.061,inactive: 0,inactive: 0.049
